Measured values as given in patent publication US20240197826A1.

Experiments:
BMP-4 [1] = assay: SPR (Biacore T100), Tfr2-ECD immobilized, BMP 50 nM as analyte
[2] = molecular target: BMP-2 (Homo sapiens (Human)); assay: as above
BMP-7 [3] = assay: as above
BMP-6 [4] = assay: as above
[5] = molecular target: BMP-2 (Homo sapiens (Human)); assay: BMP-2-competitive ELISA; 1.5 ng/ml BMP-2 with increasing Tfr2-ECD, read by BMP-2 capture and detection antibodies
BMP-4 [6] = assay: SPR (Biacore T100), Tfr2-ECD immobilized on C1 chip, BMP 50 nM as analyte, 37 C
[7] = molecular target: BMP-2 (Homo sapiens (Human)); assay: as above
BMP-7 [8] = assay: as above
BMP-6 [9] = assay: as above

binding (BMP-4 [1]): binds | binding [2]: binds | binding (BMP-7 [3]): binds | binding (BMP-6 [4]): binds | binding [5]: binds | binding (BMP-4 [6]): binds | binding [7]: binds | binding (BMP-7 [8]): binds | binding (BMP-6 [9]): binds
B1: recombinant His-Tfr2-ECD (murine extracellular domains of Tfr2, aa 103-798, with 6x His tag) (receptor, not shown: small tags and cut ends)
chain: RGSCQACGDSVLVVDEDVNPEDSGRTTLYWSDLQAMFLRFLGEGRMEDTIRLTSLRERVAGSARMATLVQDILDKLSRQKLDHVWTDTHYVGLQFPDPAHANTLHWVDADGSVQEQLPLEDPEVYCPYSATGNATGKLVYAHYGRSEDLQDLKAKGVELAGSLLLVRVGITSFAQKVAVAQDFGAQGVLIYPDPSDFSQDPHKPGLSSHQAVYGHVHLGTGDPYTPGFPSFNQTQFPPVESSGLPSIPAQPISADIADQLLRKLTGPVAPQEWKGHLSGSPYRLGPGPDLRLVVNNHRVSTPISNIFACIEGFAEPDHYVVIGAQRDAWGPGAAKSAVGTAILLELVRTFSSMVSNGFRPRRSLLFISWDGGDFGSVGATEWLEGYLSVLHLKAVVYVSLDNSVLGDGKFHAKTSPLLVSLIENILKQVDSPNHSGQTLYEQVALTHPSWDAEVIQPLPMDSSAYSFTAFAGVPAVEFSFMEDDRVYPFLHTKEDTYENLHKMLRGRLPAVVQAVAQLAGQLLIRLSHDHLLPLDFGRYGDVVLRHIGNLNEFSGDLKERGLTLQWVYSARGDYIRAAEKLRKEIYSSERNDERLMRMYNVRIMRVEFYFLSQYVSPADSPFRHIFLGQGDHTLGALVDHLRMLRADGSGAASSRLTAGLGFQESRFRRQLALLTWTLQGAANALSGDVWNIDNNF

These are yes or no findings as the source states them, for the method shown. Binding calls can cover weak binding; strength is not graded here. Tags and fused reporters may be left off the sequences shown.
